# Measured values reported in the supplement of paper PMC8728848.
# The other results are listed elsewhere or left out.
# B1: PX14343I-pdi-501-30-501 (Parabacteroides distasonis) (protein)
# chain: SDQYSTETFWKTKEHASAGIMGCYNALKLWRSLHTMEFDMLTANAMPYNEANGTQAIGKGEHLSTTALIGSLWKNCYVGIGRTNTFIANVGGVDMDESEKAKMVGEAKFLRAFYYLSLVDKFGGVPLIIDAPNADEQAELPRNSKEEVVNQIVKDLEEAAAVLPDTYASSDLGRATKGAALALKARTLLYNSRWAEAAQAAKQVMESGVYQLFNDYRHFFSEDNKYNCEVIFDIEAKLPEYPTDYDQNIWRLNRPAPLKELVDTYLCVDGKTIEESPLYDPTRPYENRDPRLLKSIVCIGYPYLGKTITKEDVATTGFGVKKYTSYEDDVTIPLVERSAFNFILIRYAEVLLTYAEAQNEASGPDQSVYDAINQLRRRPDINMPEVPKGLTKDQMREVIRRERRIELTFEGLYYSDILRWKTAEKENNGMMHNYEGIEVVKRSFNPKRDYLWPIPYNQTVLNPNLEQNPNWD
# What was measured:
# Experiment in all cases: glycan array binding signal (z-score within array); higher = stronger binding
# Conditions in all cases: glycan notation: IUPAC condensed, linker removed
# [1] = target: Gal(b1-3)GlcNAc(b1-3)Gal(b1-4)GlcNAc(b1-2)[Gal(b1-3)GlcNAc(b1-3)Gal(b1-4)GlcNAc(b1-6)]Man(a1-6)[Gal(b1-3)GlcNAc(b1-3)Gal(b1-4)GlcNAc(b1-2)Man(a1-3)]Man(b1-4)GlcNAc(b1-4)[Fuc(a1-6)]GlcNAc
# How it was run: (§1)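 Glycan array data were curated from 3228 arrays in the Consortium for Functional Glycomics database and kept only where the protein sequence was available. Glycan names were converted to IUPAC-condensed notation, and columns mapping to the same glycan were averaged. The binding signal is a within-array Z-score, averaged across arrays of the same protein sequence at different concentrations or buffers and across linkers. Negative Z-scores can be read as non-binding.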
# [2] = target: Gal(b1-3)GlcNAc(b1-3)Gal(b1-4)GlcNAc(b1-3)Gal(b1-4)GlcNAc(b1-2)[Gal(b1-3)GlcNAc(b1-3)Gal(b1-4)GlcNAc(b1-3)Gal(b1-4)GlcNAc(b1-6)]Man(a1-6)[Gal(b1-3)GlcNAc(b1-3)Gal(b1-4)GlcNAc(b1-3)Gal(b1-4)GlcNAc(b1-2)Man(a1-3)]Man(b1-4)GlcNAc(b1-4)[Fuc(a1-6)]GlcNAc
# How it was run: as §1
# [3] = target: Gal(b1-3)GlcNAc(b1-3)Gal(b1-4)GlcNAc(b1-6)[Gal(b1-3)GlcNAc(b1-3)]Gal(b1-4)Glc
# How it was run: as §1
# [4] = target: Gal(b1-3)GlcNAc(b1-3)Gal(b1-4)[Fuc(a1-3)]GlcNAc
# How it was run: as §1
# [5] = target: Gal(b1-3)GlcNAc(b1-3)Gal(b1-4)[Fuc(a1-3)]GlcNAc(b1-6)[Gal(b1-3)GlcNAc(b1-3)]Gal(b1-4)Glc
# How it was run: as §1
# [6] = target: Gal(b1-3)GlcNAc(b1-3)GalNAc
# How it was run: as §1
# [7] = target: Gal(b1-3)GlcNAc(b1-6)Gal(b1-4)GlcNAc
# How it was run: as §1
# [8] = target: Gal(b1-3)GlcNAc(b1-6)GalNAc
# How it was run: as §1
# [9] = target: Gal(b1-3)GlcNAc(b1-6)[Gal(b1-3)]GalNAc
# How it was run: as §1
# Gal(b1-3)GlcNAc6S = target: Gal(b1-3)GlcNAc6S
# How it was run: as §1
# [10] = target: Gal(b1-3)[Fuc(a1-4)]GlcNAc
# How it was run: as §1
# [11] = target: Gal(b1-3)[Fuc(a1-4)]GlcNAc(b1-2)Man
# How it was run: as §1
# [12] = target: Gal(b1-3)[Fuc(a1-4)]GlcNAc(b1-2)Man(a1-3)[Gal(b1-3)[Fuc(a1-4)]GlcNAc(b1-2)Man(a1-6)]Man(b1-4)GlcNAc(b1-4)[Fuc(a1-6)]GlcNAc
# How it was run: as §1
# [13] = target: Gal(b1-3)[Fuc(a1-4)]GlcNAc(b1-3)Gal(b1-3)[Fuc(a1-4)]GlcNAc
# How it was run: as §1
# [14] = target: Gal(b1-3)[Fuc(a1-4)]GlcNAc(b1-3)Gal(b1-4)[Fuc(a1-3)]GlcNAc
# How it was run: as §1
# [15] = target: Gal(b1-3)[Fuc(a1-4)]GlcNAc(b1-6)GalNAc
# How it was run: as §1
# [16] = target: Gal(b1-3)[GlcNAc(b1-6)]GalNAc
# How it was run: as §1
# [17] = target: Gal(b1-3)[Neu5Ac(a2-6)]GalNAc
# How it was run: as §1
# [18] = target: Gal(b1-3)[Neu5Ac(a2-6)]GlcNAc(b1-4)Gal(b1-4)Glc
# How it was run: as §1
# [19] = target: Gal(b1-3)[Neu5Ac(b2-6)]GalNAc
# How it was run: as §1
# Gal(b1-4)Gal = target: Gal(b1-4)Gal
# How it was run: as §1
# [20] = target: Gal(b1-4)GalNAc(a1-3)[Fuc(a1-2)]Gal(b1-4)GlcNAc
# How it was run: as §1
# [21] = target: Gal(b1-4)GalNAc(b1-3)[Fuc(a1-2)]Gal(b1-4)GlcNAc
# How it was run: as §1
# Gal(b1-4)Glc = target: Gal(b1-4)Glc
# How it was run: as §1
# Gal(b1-4)Glc6S = target: Gal(b1-4)Glc6S
# How it was run: as §1
# Gal(b1-4)GlcNAc = target: Gal(b1-4)GlcNAc
# How it was run: as §1
# [22] = target: Gal(b1-4)GlcNAc(a1-6)Gal(b1-4)GlcNAc
# How it was run: as §1
# Gal(b1-4)GlcNAc(b1-2)Man = target: Gal(b1-4)GlcNAc(b1-2)Man
# How it was run: as §1
# [23] = target: Gal(b1-4)GlcNAc(b1-2)Man(a1-3)Man(b1-4)GlcNAc(b1-4)GlcNAc
# How it was run: as §1
# [24] = target: Gal(b1-4)GlcNAc(b1-2)Man(a1-3)[Gal(b1-4)GlcNAc(b1-2)Man(a1-6)]Man(b1-4)GlcNAc(b1-4)GlcNAc
# How it was run: as §1
# [25] = target: Gal(b1-4)GlcNAc(b1-2)Man(a1-3)[Gal(b1-4)GlcNAc(b1-2)Man(a1-6)]Man(b1-4)GlcNAc(b1-4)[Fuc(a1-6)]GlcNAc
# How it was run: as §1
# [26] = target: Gal(b1-4)GlcNAc(b1-2)Man(a1-3)[Gal(b1-4)GlcNAc(b1-2)Man(a1-6)][Gal(b1-4)GlcNAc(b1-4)]Man(b1-4)GlcNAc(b1-4)[Fuc(a1-6)]GlcNAc
# How it was run: as §1
# [27] = target: Gal(b1-4)GlcNAc(b1-2)Man(a1-3)[Gal(b1-4)GlcNAc(b1-2)Man(a1-6)][GlcNAc(b1-4)]Man(b1-4)GlcNAc(b1-4)[Fuc(a1-6)]GlcNAc
# How it was run: as §1
# [28] = target: Gal(b1-4)GlcNAc(b1-2)Man(a1-3)[GlcNAc(b1-2)Man(a1-6)]Man(b1-4)GlcNAc(b1-4)GlcNAc
# How it was run: as §1
# [29] = target: Gal(b1-4)GlcNAc(b1-2)Man(a1-3)[GlcNAc(b1-4)][Gal(b1-4)GlcNAc(b1-2)Man(a1-6)]Man(b1-4)GlcNAc(b1-4)GlcNAc
# How it was run: as §1
# [30] = target: Gal(b1-4)GlcNAc(b1-2)Man(a1-3)[Man(a1-6)]Man(b1-4)GlcNAc(b1-4)GlcNAc
# How it was run: as §1
# [31] = target: Gal(b1-4)GlcNAc(b1-2)Man(a1-6)Man(b1-4)GlcNAc(b1-4)GlcNAc
# How it was run: as §1
# [32] = target: Gal(b1-4)GlcNAc(b1-2)Man(a1-6)[GlcNAc(b1-2)Man(a1-3)]Man(b1-4)GlcNAc(b1-4)GlcNAc
# How it was run: as §1
binder,measurement,setting,value
B1,glycan array binding signal (z-score),[1],1.1
same,glycan array binding signal (z-score),[2],1.14
same,glycan array binding signal (z-score),[3],0.989
same,glycan array binding signal (z-score),[4],-0.011
same,glycan array binding signal (z-score),[5],0.545
same,glycan array binding signal (z-score),[6],0.367
same,glycan array binding signal (z-score),[7],-0.114
same,glycan array binding signal (z-score),[8],0.189
same,glycan array binding signal (z-score),[9],-0.404
same,glycan array binding signal (z-score),Gal(b1-3)GlcNAc6S,-0.118
same,glycan array binding signal (z-score),[10],-0.327
same,glycan array binding signal (z-score),[11],0.532
same,glycan array binding signal (z-score),[12],1.6
same,glycan array binding signal (z-score),[13],0.204
same,glycan array binding signal (z-score),[14],0.906
same,glycan array binding signal (z-score),[15],-0.2
same,glycan array binding signal (z-score),[16],-0.042
same,glycan array binding signal (z-score),[17],-0.636
same,glycan array binding signal (z-score),[18],0.19
same,glycan array binding signal (z-score),[19],-1.25
same,glycan array binding signal (z-score),Gal(b1-4)Gal,0.618
same,glycan array binding signal (z-score),[20],-0.249
same,glycan array binding signal (z-score),[21],-0.377
same,glycan array binding signal (z-score),Gal(b1-4)Glc,-0.376
same,glycan array binding signal (z-score),Gal(b1-4)Glc6S,0.235
same,glycan array binding signal (z-score),Gal(b1-4)GlcNAc,0.888
same,glycan array binding signal (z-score),[22],-0.593
same,glycan array binding signal (z-score),Gal(b1-4)GlcNAc(b1-2)Man,0.196
same,glycan array binding signal (z-score),[23],-0.542
same,glycan array binding signal (z-score),[24],-0.373
same,glycan array binding signal (z-score),[25],-0.561
same,glycan array binding signal (z-score),[26],1.06
same,glycan array binding signal (z-score),[27],-0.864
same,glycan array binding signal (z-score),[28],-0.685
same,glycan array binding signal (z-score),[29],-0.521
same,glycan array binding signal (z-score),[30],-0.562
same,glycan array binding signal (z-score),[31],-0.03
same,glycan array binding signal (z-score),[32],-0.651

# Fetched one by one from above:
binder,measurement,setting,value
B1,glycan array binding signal (z-score),[26],1.06
same,glycan array binding signal (z-score),[20],-0.249
same,glycan array binding signal (z-score),Gal(b1-4)Glc,-0.376
